In the supplement of paper PMC10849652:
Some of the results follow.

The chains behind the UniProt entries cited, without tags or fusion partners. Where a name states a change or a piece, a line headed by the entry shows the natural chain unless it says otherwise.
UniProt P35240: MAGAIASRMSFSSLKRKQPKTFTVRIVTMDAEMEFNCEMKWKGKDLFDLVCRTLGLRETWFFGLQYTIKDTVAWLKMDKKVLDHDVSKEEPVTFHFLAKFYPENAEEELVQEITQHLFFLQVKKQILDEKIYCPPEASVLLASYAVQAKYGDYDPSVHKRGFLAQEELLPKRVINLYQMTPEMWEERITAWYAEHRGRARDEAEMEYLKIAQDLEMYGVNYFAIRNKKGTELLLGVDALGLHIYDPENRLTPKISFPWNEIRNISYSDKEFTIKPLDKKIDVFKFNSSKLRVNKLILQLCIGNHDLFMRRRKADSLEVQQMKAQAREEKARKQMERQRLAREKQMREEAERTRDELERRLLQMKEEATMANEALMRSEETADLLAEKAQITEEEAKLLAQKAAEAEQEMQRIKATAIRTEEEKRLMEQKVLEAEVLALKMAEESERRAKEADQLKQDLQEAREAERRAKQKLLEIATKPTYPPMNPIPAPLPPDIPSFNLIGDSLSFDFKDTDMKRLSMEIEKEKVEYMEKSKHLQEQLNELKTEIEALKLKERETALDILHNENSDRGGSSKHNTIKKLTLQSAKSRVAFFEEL
UniProt Q92692, whole entry, looked up: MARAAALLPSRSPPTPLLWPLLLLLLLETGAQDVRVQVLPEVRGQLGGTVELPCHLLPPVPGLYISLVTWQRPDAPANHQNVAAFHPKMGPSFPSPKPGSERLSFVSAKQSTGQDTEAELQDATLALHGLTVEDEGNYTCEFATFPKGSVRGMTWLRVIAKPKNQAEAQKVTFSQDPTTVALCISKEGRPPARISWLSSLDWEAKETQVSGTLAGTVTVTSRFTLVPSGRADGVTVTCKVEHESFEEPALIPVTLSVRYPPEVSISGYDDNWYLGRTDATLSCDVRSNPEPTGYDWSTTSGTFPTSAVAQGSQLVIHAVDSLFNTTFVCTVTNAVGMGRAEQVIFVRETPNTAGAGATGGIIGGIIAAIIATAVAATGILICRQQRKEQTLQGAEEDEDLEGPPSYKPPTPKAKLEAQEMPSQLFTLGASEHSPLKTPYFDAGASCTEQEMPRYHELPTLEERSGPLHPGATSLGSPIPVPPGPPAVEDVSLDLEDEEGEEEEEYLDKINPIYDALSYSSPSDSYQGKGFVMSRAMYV
UniProt Q86Y39, whole entry, looked up: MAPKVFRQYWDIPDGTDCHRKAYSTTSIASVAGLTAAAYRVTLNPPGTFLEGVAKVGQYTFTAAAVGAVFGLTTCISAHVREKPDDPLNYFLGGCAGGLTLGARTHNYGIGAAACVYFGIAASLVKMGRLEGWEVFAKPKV
UniProt P56181: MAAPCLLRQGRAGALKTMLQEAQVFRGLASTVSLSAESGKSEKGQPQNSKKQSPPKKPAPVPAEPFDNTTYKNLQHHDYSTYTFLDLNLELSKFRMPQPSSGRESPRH
UniProt O95139, whole entry, looked up: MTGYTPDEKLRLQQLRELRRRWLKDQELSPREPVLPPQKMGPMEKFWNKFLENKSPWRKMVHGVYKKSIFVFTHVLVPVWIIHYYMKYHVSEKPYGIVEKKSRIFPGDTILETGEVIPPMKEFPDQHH
UniProt Q8N8Q9: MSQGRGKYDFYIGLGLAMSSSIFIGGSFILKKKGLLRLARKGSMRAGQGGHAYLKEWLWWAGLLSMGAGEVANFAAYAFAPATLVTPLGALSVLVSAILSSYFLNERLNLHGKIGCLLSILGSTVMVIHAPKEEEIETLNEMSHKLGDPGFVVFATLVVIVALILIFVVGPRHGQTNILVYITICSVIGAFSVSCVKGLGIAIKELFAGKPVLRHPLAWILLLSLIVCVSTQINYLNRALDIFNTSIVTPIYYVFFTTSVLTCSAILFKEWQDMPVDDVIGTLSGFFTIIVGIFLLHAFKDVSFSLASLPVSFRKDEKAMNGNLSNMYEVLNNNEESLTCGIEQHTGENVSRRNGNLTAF
UniProt O00221: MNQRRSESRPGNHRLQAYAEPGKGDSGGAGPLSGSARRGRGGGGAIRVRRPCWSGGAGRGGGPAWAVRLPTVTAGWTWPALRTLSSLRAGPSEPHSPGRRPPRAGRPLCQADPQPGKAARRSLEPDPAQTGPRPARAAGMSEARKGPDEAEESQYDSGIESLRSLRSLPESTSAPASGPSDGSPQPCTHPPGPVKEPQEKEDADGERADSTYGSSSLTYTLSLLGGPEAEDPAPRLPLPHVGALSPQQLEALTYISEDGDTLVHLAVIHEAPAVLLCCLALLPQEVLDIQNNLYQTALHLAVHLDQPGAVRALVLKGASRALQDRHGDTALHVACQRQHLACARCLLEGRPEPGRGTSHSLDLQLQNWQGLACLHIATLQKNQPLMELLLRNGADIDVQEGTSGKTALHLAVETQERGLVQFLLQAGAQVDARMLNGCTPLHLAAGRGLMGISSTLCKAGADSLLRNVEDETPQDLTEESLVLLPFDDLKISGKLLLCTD
UniProt Q8NBF2: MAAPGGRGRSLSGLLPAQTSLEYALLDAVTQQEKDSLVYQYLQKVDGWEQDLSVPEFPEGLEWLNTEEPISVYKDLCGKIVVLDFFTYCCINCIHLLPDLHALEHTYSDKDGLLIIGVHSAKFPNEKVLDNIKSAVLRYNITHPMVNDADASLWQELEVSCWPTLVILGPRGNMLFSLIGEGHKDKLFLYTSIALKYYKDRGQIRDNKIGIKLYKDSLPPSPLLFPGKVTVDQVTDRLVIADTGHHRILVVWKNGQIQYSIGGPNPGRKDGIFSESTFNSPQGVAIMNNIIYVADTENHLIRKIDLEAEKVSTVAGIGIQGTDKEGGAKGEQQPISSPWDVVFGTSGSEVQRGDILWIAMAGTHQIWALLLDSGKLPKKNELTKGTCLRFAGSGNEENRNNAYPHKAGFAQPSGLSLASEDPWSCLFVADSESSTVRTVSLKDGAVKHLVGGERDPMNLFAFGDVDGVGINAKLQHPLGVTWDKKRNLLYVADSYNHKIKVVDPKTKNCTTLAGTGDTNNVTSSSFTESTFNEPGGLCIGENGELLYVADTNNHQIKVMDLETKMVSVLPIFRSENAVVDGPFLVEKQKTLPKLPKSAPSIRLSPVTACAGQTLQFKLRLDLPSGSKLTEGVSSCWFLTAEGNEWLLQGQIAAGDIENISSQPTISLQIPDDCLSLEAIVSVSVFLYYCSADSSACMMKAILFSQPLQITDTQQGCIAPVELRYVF
UniProt O95299, whole entry, looked up: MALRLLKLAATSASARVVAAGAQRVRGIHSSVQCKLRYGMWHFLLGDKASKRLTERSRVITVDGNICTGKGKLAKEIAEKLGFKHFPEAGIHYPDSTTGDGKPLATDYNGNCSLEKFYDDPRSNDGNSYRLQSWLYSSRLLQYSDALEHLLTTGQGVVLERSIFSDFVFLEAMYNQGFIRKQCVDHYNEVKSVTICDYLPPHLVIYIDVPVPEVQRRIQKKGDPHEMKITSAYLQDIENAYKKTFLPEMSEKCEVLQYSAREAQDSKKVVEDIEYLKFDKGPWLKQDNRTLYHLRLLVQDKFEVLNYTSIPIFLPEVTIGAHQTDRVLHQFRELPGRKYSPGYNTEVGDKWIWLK
UniProt O95644: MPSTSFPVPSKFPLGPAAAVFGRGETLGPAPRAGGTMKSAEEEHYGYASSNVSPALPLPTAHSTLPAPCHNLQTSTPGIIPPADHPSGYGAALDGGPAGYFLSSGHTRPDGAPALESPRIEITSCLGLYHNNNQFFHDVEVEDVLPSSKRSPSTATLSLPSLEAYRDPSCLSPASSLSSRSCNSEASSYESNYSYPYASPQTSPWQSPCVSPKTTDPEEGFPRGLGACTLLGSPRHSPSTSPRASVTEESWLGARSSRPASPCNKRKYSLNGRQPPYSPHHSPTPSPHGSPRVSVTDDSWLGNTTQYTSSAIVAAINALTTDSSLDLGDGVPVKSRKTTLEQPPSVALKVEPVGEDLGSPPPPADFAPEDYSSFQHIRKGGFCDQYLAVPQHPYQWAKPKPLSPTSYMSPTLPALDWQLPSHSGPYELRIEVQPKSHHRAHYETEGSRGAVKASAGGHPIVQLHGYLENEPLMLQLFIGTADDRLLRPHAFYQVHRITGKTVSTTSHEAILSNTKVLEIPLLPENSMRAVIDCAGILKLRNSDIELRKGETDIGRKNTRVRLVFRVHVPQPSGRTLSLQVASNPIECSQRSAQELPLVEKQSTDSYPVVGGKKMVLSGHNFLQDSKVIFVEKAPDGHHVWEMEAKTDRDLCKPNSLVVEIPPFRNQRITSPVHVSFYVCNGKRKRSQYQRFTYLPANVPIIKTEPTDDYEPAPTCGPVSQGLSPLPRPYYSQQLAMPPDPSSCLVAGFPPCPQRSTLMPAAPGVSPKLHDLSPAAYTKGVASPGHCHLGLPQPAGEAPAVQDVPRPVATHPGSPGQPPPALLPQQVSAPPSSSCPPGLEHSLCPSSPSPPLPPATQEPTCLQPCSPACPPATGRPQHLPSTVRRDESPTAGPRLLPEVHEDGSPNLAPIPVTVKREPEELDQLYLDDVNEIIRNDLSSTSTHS
UniProt O94916: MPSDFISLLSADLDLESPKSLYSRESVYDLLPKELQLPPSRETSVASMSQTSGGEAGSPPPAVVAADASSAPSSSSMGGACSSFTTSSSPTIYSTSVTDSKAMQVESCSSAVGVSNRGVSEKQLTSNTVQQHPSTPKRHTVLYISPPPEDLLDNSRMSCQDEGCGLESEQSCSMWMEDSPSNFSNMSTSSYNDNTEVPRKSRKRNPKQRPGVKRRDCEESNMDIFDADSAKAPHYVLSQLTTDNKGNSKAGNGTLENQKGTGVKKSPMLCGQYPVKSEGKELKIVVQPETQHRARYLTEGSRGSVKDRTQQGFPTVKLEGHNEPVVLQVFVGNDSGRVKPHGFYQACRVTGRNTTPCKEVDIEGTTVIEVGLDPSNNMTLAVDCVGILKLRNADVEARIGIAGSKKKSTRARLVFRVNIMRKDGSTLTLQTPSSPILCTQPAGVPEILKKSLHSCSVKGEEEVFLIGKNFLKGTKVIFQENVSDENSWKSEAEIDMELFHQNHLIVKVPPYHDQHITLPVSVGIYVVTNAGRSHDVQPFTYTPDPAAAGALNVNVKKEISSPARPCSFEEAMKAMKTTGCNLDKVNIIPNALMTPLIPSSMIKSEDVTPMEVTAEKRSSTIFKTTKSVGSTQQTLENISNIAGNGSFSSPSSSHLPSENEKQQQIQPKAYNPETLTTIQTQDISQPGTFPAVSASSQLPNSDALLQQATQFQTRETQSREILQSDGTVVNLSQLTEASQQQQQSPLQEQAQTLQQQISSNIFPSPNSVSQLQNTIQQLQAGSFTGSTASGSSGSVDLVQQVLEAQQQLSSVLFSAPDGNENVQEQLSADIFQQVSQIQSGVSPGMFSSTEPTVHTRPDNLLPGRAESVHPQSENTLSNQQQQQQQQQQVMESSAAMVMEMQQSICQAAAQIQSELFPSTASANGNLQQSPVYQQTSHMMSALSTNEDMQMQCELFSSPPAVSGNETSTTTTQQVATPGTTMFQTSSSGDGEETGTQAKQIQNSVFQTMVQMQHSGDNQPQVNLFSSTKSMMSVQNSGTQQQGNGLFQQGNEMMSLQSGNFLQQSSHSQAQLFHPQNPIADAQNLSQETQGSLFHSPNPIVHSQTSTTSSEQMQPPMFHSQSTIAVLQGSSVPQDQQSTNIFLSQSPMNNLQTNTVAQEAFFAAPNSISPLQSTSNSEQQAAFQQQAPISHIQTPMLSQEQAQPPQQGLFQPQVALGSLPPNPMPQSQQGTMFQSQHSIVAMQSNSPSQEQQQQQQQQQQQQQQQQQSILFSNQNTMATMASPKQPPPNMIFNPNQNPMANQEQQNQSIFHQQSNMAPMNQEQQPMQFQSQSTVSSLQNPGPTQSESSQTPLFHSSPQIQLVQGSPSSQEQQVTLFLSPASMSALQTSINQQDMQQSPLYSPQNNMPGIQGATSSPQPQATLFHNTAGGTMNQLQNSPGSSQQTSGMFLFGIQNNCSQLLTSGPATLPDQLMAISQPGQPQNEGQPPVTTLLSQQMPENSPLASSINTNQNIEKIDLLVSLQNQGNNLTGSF
UniProt Q9NVZ3: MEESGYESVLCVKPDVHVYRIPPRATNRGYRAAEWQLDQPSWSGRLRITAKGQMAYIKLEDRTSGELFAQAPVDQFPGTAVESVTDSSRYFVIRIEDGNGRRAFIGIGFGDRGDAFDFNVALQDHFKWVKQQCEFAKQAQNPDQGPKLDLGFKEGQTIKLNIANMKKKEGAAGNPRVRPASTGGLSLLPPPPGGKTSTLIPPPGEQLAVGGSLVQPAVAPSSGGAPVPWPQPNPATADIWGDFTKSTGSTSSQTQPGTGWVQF
UniProt Q9NX24: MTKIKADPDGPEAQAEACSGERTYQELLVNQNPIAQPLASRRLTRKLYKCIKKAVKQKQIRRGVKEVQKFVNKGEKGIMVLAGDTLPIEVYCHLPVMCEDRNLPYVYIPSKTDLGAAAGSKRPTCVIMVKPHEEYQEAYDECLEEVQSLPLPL

Key:
Assay in all cases: log2 fold change, soluble protein after heating vs DMSO (PISA); higher = thermal stabilisation; K562 lysate, 10 uM; active = over 0.2 and 3.5 SD of the protein, either way, in both replicates (recomputed)
erlotinib = compound: C#Cc1cccc(Nc2ncnc3cc(OCCOC)c(OCCOC)cc23)c1 [erlotinib]
In short: (§1)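 Values give the log-two fold change in thermal stability against solvent controls, from duplicates. Crude K562 extract at 1 mg/mL protein, made by dounce homogenisation in PBS pH 7.4 with 1 mM MgCl2, was treated with 10 μM compound for 30 min. After 3 min heating across 48°C-58°C, aliquots were pooled, adjusted to 0.5% NP-40 at 4°C and centrifuged at 21,000xg for 90 min. The supernatant was measured by TMTpro 16plex LC-MS/MS with channel sums equalised.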

[1] = compound: C/C(=N\NC(=O)C1=CC(=CC=C1)S(=O)(=O)N2CCOCC2)/C3=C(C=CC(=C3)Cl)O
In short: as §1

[2] = compound: C1=CC(=CC=C1C2=NC3=C(N2)C=C(C=C3)C(=O)N)OC4=CC=C(C=C4)Cl
In short: as §1

[3] = compound: C1=CC2=C(C=CC(=C2)/C=C\3/C(=O)NC(=NCC4=CC=CS4)S3)N=C1
In short: as §1

[4] = compound: C1=CC2=NC=CN=C2C=C1/C=C/3\C(=O)NC(=O)S3
In short: as §1

[5] = compound: C1=CC=C(C=C1)C2=NC(=C(N2)C3=CC=NC=C3)C4=CC(=C(C=C4)Cl)O
In short: as §1

[6] = compound: C1=CC=C2C(=C1)C3=NNC4=CC=CC(=C43)C2=O
In short: as §1

[7] = compound: C1CCN(C1)C(=O)NC2=CC=CC(=C2)NC3=NC=C(C(=N3)NCCC4=CN=CN4)Br
In short: as §1

[8] = compound: C1CN(CCC1(CC2=CC=C(C=C2)Cl)N)C3=NC=NC4=C3C=CN4
In short: as §1

IRAK-1-4 Inhibitor I = compound: C1COCCN1CCN2C3=CC=CC=C3N=C2NC(=O)C4=CC(=CC=C4)[N+](=O)[O-] [IRAK-1-4 Inhibitor I]
In short: as §1

ibrutinib = compound: C=CC(=O)N1CCC[C@@H](n2nc(-c3ccc(Oc4ccccc4)cc3)c3c(N)ncnc32)C1 [ibrutinib]
In short: as §1

[9] = compound: CC(=O)c1cnc2ccc(-c3cc(Cl)c(O)c(Cl)c3)nc2c1N[C@H]1CC[C@H](CN(C)C)CC1
In short: as §1

ralimetinib = compound: CC(C)(C)Cn1c(N)nc2ccc(-c3[nH]c(C(C)(C)C)nc3-c3ccc(F)cc3)nc21 [ralimetinib]
In short: as §1

[10] = compound: CC(C)(O)CC(=O)NCCn1ccc2ncnc(Nc3ccc(Oc4cccc(C(F)(F)F)c4)c(Cl)c3)c21
In short: as §1

[11] = compound: CC(C)C1=C2N=C(C=C(N2N=C1)NCC3=CC=CC=C3)NCCCCCCN
In short: as §1

[12] = compound: CC1=C(C(CC(=O)N1)C2=CC=C(C=C2)C(F)(F)F)C(=O)NC3=C(C=C4C(=C3)C=NN4)F
In short: as §1

[13] = compound: CC1=C(C2=C(C=C1)C(=O)C3=CC=CC=C3N2CCCN)C
In short: as §1

[14] = compound: CC1=C(C=C(C=C1)NC(=O)C2=CC(=CC=C2)C(C)(C)C#N)NC3=CC4=C(C=C3)N=CN(C4=O)C
In short: as §1

[15] = compound: CC1=C(C=C(C=C1)NC(=O)C2=CC(=CC=C2)N(C)C)NC(=O)C3=CC=C(C=C3)O
In short: as §1

[16] = compound: CC1=CC=C(C=C1)SC2=C3C=C(SC3=CN=C2)C(=O)N
In short: as §1

Measured: log2 fold change

NF2 (UniProt P35240)
inactive: erlotinib -0.012 | [1] 0.061 | [2] 0.003 | [3] 0.026 | [4] -0.026 | [5] -0.01 | [6] -0.02 | [7] -0.046 | [8] 0.026 | IRAK-1-4 Inhibitor I 0.011 | ibrutinib 0.005 | [9] -0.01 | ralimetinib 0.028 | [10] -0.038 | [11] 0.015 | [12] 0.007 | [13] -0.004 | [14] 0.056 | [15] 0.017 | [16] -0.042

NECTIN2 (UniProt Q92692)
inactive: erlotinib -0.006 | [1] -0.027 | [2] 0.005 | [3] 0.013 | [4] 0.01 | [5] -0.002 | [6] 0.006 | [7] 0.019 | [8] -0.005 | IRAK-1-4 Inhibitor I -0.001 | ibrutinib 0.005 | [9] 0.007 | ralimetinib 0.001 | [10] -0.005 | [11] -0.016 | [12] -0.007 | [13] 0.005 | [14] -0.003 | [15] -0.015 | [16] -0.008

NLRC3 isoform 2 (UniProt Q7RTR2)
inactive: erlotinib -0.017 | [1] -0.062 | [2] 0.018 | [3] -0.109 | [4] -0.075 | [5] 0.043 | [6] 0.027 | [7] 0.026 | [8] -0.108 | IRAK-1-4 Inhibitor I 0.014 | ibrutinib -0.066 | [9] 0.024 | ralimetinib -0.015 | [10] -0.234 | [11] -0.029 | [12] -0.108 | [13] 0.014 | [14] 0.247 | [15] 0.32 | [16] 0.024

NDUFA11 (UniProt Q86Y39)
inactive: erlotinib 0.032 | [1] -0.085 | [2] -0.056 | [3] -0.074 | [4] -0.007 | [5] -0.043 | [6] -0.003 | [7] -0.009 | [8] -0.032 | IRAK-1-4 Inhibitor I -0.035 | ibrutinib 0.004 | [9] -0.011 | ralimetinib 0.033 | [10] -0.019 | [11] -0.035 | [12] -0.017 | [13] -0.002 | [14] 0.011 | [15] -0.081 | [16] 0.005

NDUFV3 isoform 2 (UniProt P56181)
inactive: erlotinib -0.001 | [1] 0.019 | [2] 0.018 | [3] 0.017 | [4] -0.032 | [5] 0.004 | [6] -0.039 | [7] 0 | [8] 0.015 | IRAK-1-4 Inhibitor I 0.006 | ibrutinib 0.026 | [9] -0.01 | ralimetinib 0.032 | [10] -0.018 | [11] -0.004 | [12] -0.002 | [13] -0.019 | [14] -0.02 | [15] 0.003 | [16] -0.027

Copied from above (4 entries):
NF2 (UniProt P35240)
inactive: erlotinib -0.012 | [1] 0.061 | [2] 0.003 | [3] 0.026 | [4] -0.026 | [5] -0.01 | [6] -0.02 | [7] -0.046 | [8] 0.026 | IRAK-1-4 Inhibitor I 0.011 | ibrutinib 0.005 | [9] -0.01 | ralimetinib 0.028 | [10] -0.038 | [11] 0.015 | [12] 0.007 | [13] -0.004 | [14] 0.056 | [15] 0.017 | [16] -0.042

NECTIN2 (UniProt Q92692)
inactive: erlotinib -0.006 | [1] -0.027 | [2] 0.005 | [3] 0.013 | [4] 0.01 | [5] -0.002 | [6] 0.006 | [7] 0.019 | [8] -0.005 | IRAK-1-4 Inhibitor I -0.001 | ibrutinib 0.005 | [9] 0.007 | ralimetinib 0.001 | [10] -0.005 | [11] -0.016 | [12] -0.007 | [13] 0.005 | [14] -0.003 | [15] -0.015 | [16] -0.008

NLRC3 isoform 2 (UniProt Q7RTR2)
inactive: erlotinib -0.017 | [1] -0.062 | [2] 0.018 | [3] -0.109 | [4] -0.075 | [5] 0.043 | [6] 0.027 | [7] 0.026 | [8] -0.108 | IRAK-1-4 Inhibitor I 0.014 | ibrutinib -0.066 | [9] 0.024 | ralimetinib -0.015 | [10] -0.234 | [11] -0.029 | [12] -0.108 | [13] 0.014 | [14] 0.247 | [15] 0.32 | [16] 0.024

NDUFA11 (UniProt Q86Y39)
inactive: erlotinib 0.032 | [1] -0.085 | [2] -0.056 | [3] -0.074 | [4] -0.007 | [5] -0.043 | [6] -0.003 | [7] -0.009 | [8] -0.032 | IRAK-1-4 Inhibitor I -0.035 | ibrutinib 0.004 | [9] -0.011 | ralimetinib 0.033 | [10] -0.019 | [11] -0.035 | [12] -0.017 | [13] -0.002 | [14] 0.011 | [15] -0.081 | [16] 0.005

The listing continues:

NFATC2IP (UniProt Q8NCF5)
inactive: erlotinib 0.001 | [1] 0.026 | [2] -0.036 | [3] 0.006 | [4] 0.016 | [5] 0.031 | [6] -0.071 | [7] 0.013 | [8] -0.016 | IRAK-1-4 Inhibitor I -0.009 | ibrutinib 0.015 | [9] -0.037 | ralimetinib 0 | [10] -0.052 | [11] 0.01 | [12] -0.021 | [13] -0.019 | [14] -0.047 | [15] 0.013 | [16] 0.011

NDUFB6 (UniProt O95139)
inactive: erlotinib -0.01 | [1] 0.012 | [2] 0 | [3] 0 | [4] 0.016 | [5] -0.004 | [6] -0.025 | [7] -0.022 | [8] -0.002 | IRAK-1-4 Inhibitor I 0.023 | ibrutinib -0.036 | [9] 0.001 | ralimetinib 0.014 | [10] -0.092 | [11] -0.006 | [12] -0.014 | [13] -0.009 | [14] 0.057 | [15] 0.026 | [16] -0.038

NIPA2 (UniProt Q8N8Q9)
inactive: erlotinib -0.102 | [1] 0.02 | [2] 0.035 | [3] 0.091 | [4] -0.007 | [5] 0 | [6] -0.069 | [7] -0.089 | [8] 0.079 | IRAK-1-4 Inhibitor I -0.088 | ibrutinib 0.149 | [9] -0.021 | ralimetinib 0.055 | [10] -0.048 | [11] 0.044 | [12] -0.057 | [13] -0.062 | [14] 0.021 | [15] -0.093 | [16] -0.054

NFATC3 (UniProt Q12968)
inactive: erlotinib -0.026 | [1] -0.023 | [2] 0.071 | [3] 0.05 | [4] -0.006 | [5] -0.009 | [6] -0.029 | [7] -0.046 | [8] -0.021 | IRAK-1-4 Inhibitor I 0.008 | ibrutinib 0.023 | [9] -0.005 | ralimetinib 0.004 | [10] -0.05 | [11] 0.005 | [12] 0.044 | [13] -0.028 | [14] 0.003 | [15] 0.031 | [16] 0.003

NFKBIE (UniProt O00221)
inactive: erlotinib 0.014 | [1] -0.009 | [2] -0.117 | [3] 0.059 | [4] -0.022 | [5] 0.059 | [6] -0.026 | [7] -0.078 | [8] 0.081 | IRAK-1-4 Inhibitor I 0.119 | ibrutinib -0.018 | [9] 0.054 | ralimetinib -0.008 | [10] -0.059 | [11] -0.05 | [12] 0.015 | [13] -0.044 | [14] 0.027 | [15] 0.05 | [16] 0.018

NHLRC2 (UniProt Q8NBF2)
inactive: erlotinib 0.003 | [1] -0.022 | [2] -0.006 | [3] -0.012 | [4] -0.018 | [5] 0.012 | [6] 0.009 | [7] -0.009 | [8] 0.011 | IRAK-1-4 Inhibitor I -0.006 | ibrutinib -0.039 | [9] 0 | ralimetinib 0.013 | [10] -0.02 | [11] 0.027 | [12] -0.021 | [13] 0.091 | [14] 0.013 | [15] 0.026 | [16] 0.024

NDUFA10 (UniProt O95299)
inactive: erlotinib 0.045 | [1] 0.022 | [2] -0.064 | [3] 0.02 | [4] 0.236 | [5] -0.018 | [6] -0.025 | [7] 0.012 | [8] 0.017 | IRAK-1-4 Inhibitor I -0.032 | ibrutinib -0.059 | [9] 0.083 | ralimetinib 0.008 | [10] 0 | [11] -0.051 | [12] 0.08 | [13] 0.064 | [14] -0.052 | [15] 0.058 | [16] -0.054

NFATC1 (UniProt O95644)
inactive: erlotinib -0.002 | [1] -0.431 | [2] 0.045 | [3] -0.04 | [4] -0.02 | [5] 0.065 | [6] 0.009 | [7] 0.044 | [8] 0.092 | IRAK-1-4 Inhibitor I 0.077 | ibrutinib 0.011 | [9] 0.06 | ralimetinib -0.004 | [10] -0.067 | [11] -0.038 | [12] 0.031 | [13] -0.047 | [14] 0.094 | [15] -0.015 | [16] -0.052

NFAT5 isoform 5 (UniProt O94916)
inactive: erlotinib -0.06 | [1] -0.012 | [2] 0.016 | [3] -0.036 | [4] 0.049 | [5] -0.008 | [6] -0.012 | [7] -0.006 | [8] 0.02 | IRAK-1-4 Inhibitor I 0.047 | ibrutinib -0.027 | [9] -0.029 | ralimetinib -0.017 | [10] 0.129 | [11] 0.003 | [12] 0.112 | [13] -0.008 | [14] -0.081 | [15] -0.004 | [16] 0.032

NECAP2 (UniProt Q9NVZ3)
inactive: erlotinib 0.017 | [1] -0.017 | [2] 0.014 | [3] -0.022 | [4] -0.002 | [5] 0.033 | [6] 0.061 | [7] 0.022 | [8] 0.02 | IRAK-1-4 Inhibitor I -0.005 | ibrutinib -0.005 | [9] -0.003 | ralimetinib -0.014 | [10] 0.023 | [11] 0.023 | [12] -0.004 | [13] 0.001 | [14] 0.032 | [15] -0.024 | [16] 0.008

NHP2 (UniProt Q9NX24)
inactive: erlotinib -0.015 | [1] -0.101 | [2] 0.023 | [3] 0.02 | [4] -0.026 | [5] -0.088 | [6] -0.014 | [7] 0.01 | [8] 0.031 | IRAK-1-4 Inhibitor I -0.009 | ibrutinib -0.071 | [9] -0.038 | ralimetinib -0.025 | [10] -0.067 | [11] 0.008 | [12] -0.001 | [13] -0.015 | [14] -0.077 | [15] 0.017 | [16] -0.058
